Laboratory results as given in PubChem BioAssay AID1487 (National Center for Advancing Translational Sciences (NCATS), 2009).
The other results are listed elsewhere or left out. The main result of the screen is listed elsewhere. These columns were measured beside it and carry no call. Most of these compounds were active or inconclusive in the main read-out, so they are no random draw. Potencies come from curve fits of mixed quality, noted in brackets.

Test: qHTS Assay for Modulators of Lamin A Splicing
Conditions: HeLa LMNA splicing GFP/RFP minigene ratio, 48 h
How it was run: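 S3 HeLa cells stably expressing lamin A-EGFP splicing minigene plus DsRed2, 600 cells/well, 48 h compound exposure at 37C. Laser-scanning cytometry; analysed as GFP (500-530 nm)/RFP (575-640 nm) total intensity ratio; 0.5% DMSO vehicle.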

[1] = measured here: GFP splicing reporter channel
[2] = measured here: RFP viability control channel

SMILES | AC50 [1] | AC50 [2]
Cc1ccc(-c2nn(-c3ccccc3)cc2CSC(=N)N)cc1 | 12.6 µM [falling, single point] | 11.2 µM [falling, partial curve]
COc1ccccc1C1(CC(=O)N2CCCCC2)CCOC(C(C)C)C1 (stereo not given) | – | 1.12 µM [falling, full curve, poor fit]
N#CC1=C(N)N2C(=C(C#N)C1c1ccc(Br)cc1)Nc1ccccc12 (stereo not given) | 35.5 µM [falling, single point] | 2 µM [rising, partial curve, poor fit]
COc1ccc(Nc2cc(C(=O)NCc3ccco3)c3ccccc3n2)c(OC)c1 | 6.31 µM [falling, partial curve] | –
COc1ccc(-c2nn(C)c(=O)c3ccccc23)cc1NC(=O)Cn1nc(C)c2ccccc2c1=O | – | 14.1 µM [rising, single point]
Brc1c(CSc2nc3ccccc3o2)nc2ncccn12 | – | 12.6 µM [rising, single point]
COCCNC(=S)N/N=C(\C)c1cccc([N+](=O)[O-])c1 | – | 8.91 µM [rising, partial curve]
O=C(CN1CCN(Cc2ccccc2)CC1)N1CCCc2c1c(=O)oc1ccc(O)cc21 | 22.4 µM [falling, single point] | 1 µM [falling, partial curve, poor fit]
Fc1cccc(Cl)c1CSc1nnc(COc2cccc3cccnc23)o1 | – | 14.1 µM [rising, single point]
CCOc1ccc(NS(=O)(=O)c2ccc(SC)cc2)cc1 | 35.5 µM [rising, single point] | 35.5 µM [rising, single point]
Cn1cc(-c2nc3ccccc3[nH]2)c2ccccc21 | – | 12.6 µM [rising, single point]
CCCc1nn(C)c(C(=O)Nc2ccc(C(C)(C)C)cc2)c1Cl | 35.5 µM [rising, single point] | 35.5 µM [rising, single point]
CCc1c(C)nc2ncnn2c1NCc1cccs1 | – | 1.26 µM [rising, full curve, poor fit]
COc1ccccc1-c1nc(N(C)Cc2ccco2)c2ccccc2n1 | 11.2 µM [falling, partial curve] | –
Cc1cc(C)c(S(=O)(=O)N2CCOC2CNC(=O)C(=O)NCCc2c[nH]c3ccccc23)c(C)c1 (stereo not given) | 31.6 µM [rising, single point] | 35.5 µM [rising, single point]
N#CC1=C(N)C(C#N)(C#N)C(c2cccnc2)C2CC(c3ccccc3)CC=C12 (stereo not given) | 15.8 µM [falling, single point] | 17.8 µM [falling, partial curve]
Cc1c(Cl)cccc1Nc1ccccc1C(=O)O | 28.2 µM [rising, partial curve] | 7.08 µM [rising, full curve, poor fit]
COc1ccc(OC)c(CNc2ncnc3onc(C)c23)c1 | – | 0.00794 µM [falling, full curve, poor fit]
O=C(NC1CCCCCCC1)c1ccccc1O | 11.2 µM [rising, single point] | 15.8 µM [rising, single point]

Three structures from above, sorted by length of the SMILES, ascending:
SMILES | AC50 [1] | AC50 [2]
O=C(NC1CCCCCCC1)c1ccccc1O | 11.2 µM [rising, single point] | 15.8 µM [rising, single point]
Cn1cc(-c2nc3ccccc3[nH]2)c2ccccc21 | – | 12.6 µM [rising, single point]
COc1ccccc1-c1nc(N(C)Cc2ccco2)c2ccccc2n1 | 11.2 µM [falling, partial curve] | –

Additional entries follow:

SMILES | AC50 [1] | AC50 [2]
CCOC(=O)c1cc2c(=O)n3ccccc3nc2n(C(C)C)c1=NC(=O)c1c(-c2c(F)cccc2Cl)noc1C | – | 0.631 µM [falling, full curve, poor fit]
CCC1CCCCN1S(=O)(=O)c1ccc(C(=O)Nc2nnc(-c3cccs3)o2)cc1 (stereo not given) | – | 3.55 µM [rising, full curve]
CN(C)c1ccc(C(=O)NCc2ccc3c(c2)CCN3C(=O)c2ccc(Cl)cc2)cc1 | 1.12 µM [falling, full curve, poor fit] | –
O=C(O)CC(NC(=O)C12CC3CC(CC(C3)C1)C2)c1ccc(OC2CCCC2)cc1 (stereo not given) | 1.41 µM [rising, partial curve] | –
C=CCN1C(=O)C(CC(=O)Nc2ccccc2)S/C1=N/c1nccs1 (stereo not given) | 1.41 µM [rising, full curve] | 2.51 µM [rising, full curve, poor fit]
N/C(=N\OC(=O)CCCOc1ccccc1)c1ccncc1 | – | 22.4 µM [rising, single point]
COc1cc(OC)cc(C(=O)Nc2cccc(-c3cn4ccsc4n3)c2)c1 | – | 6.31 µM [falling, partial curve, poor fit]
CNC(=S)N(Cc1ccc2c(c1)OCO2)C1CC(=O)N(c2ccccc2)C1=O (stereo not given) | – | 31.6 µM [rising, single point]
N#Cc1cc2c([nH]c1=O)CCCC2 | 0.0224 µM [falling, full curve, poor fit] | –
Cc1ccccc1Nc1scc(-c2ccc(Cl)cc2)[n+]1-c1ccccc1C | – | 1.78 µM [rising, partial curve, poor fit]
COc1ccc(CCN2C(=S)N(C)C(=O)C2CC(=O)Nc2ccc(F)cc2)cc1 (stereo not given) | 35.5 µM [rising, single point] | –
Cc1cccc(C(=O)NCCNc2nc3cc(C)c(C)cc3cc2C)c1 | – | 25.1 µM [falling, single point]
CCOC(=O)C1=C(C)Nc2ccccc2N=C1NC(=O)Cc1ccc(Cl)c(Cl)c1 | – | 12.6 µM [rising, single point]
CCOc1cc(C#N)c(NC(=O)c2ccco2)cc1OCC | – | 0.316 µM [falling, partial curve, poor fit]
Cc1cccc(Nc2nc(N3CCCCC3)nc(N3CCCCC3)n2)c1 | – | 17.8 µM [rising, single point]
COc1ccccc1-c1c(C)nn2c(N3CCN(c4ccc(F)cc4)CC3)cc(C)nc12 | 0.794 µM [falling, full curve, poor fit] | –
COc1cc2cc(CN(Cc3cccs3)C(=S)Nc3ccccc3)c(=O)[nH]c2cc1OC | – | 14.1 µM [rising, partial curve]
COc1ccc(N2CCN(C(=S)NCc3ccccc3)CC2)cc1 | 0.794 µM [rising, full curve, poor fit] | –
CC(=O)Nc1ccc2nc(SCCOc3ccccc3Cl)sc2c1 | 35.5 µM [falling, partial curve, poor fit] | 35.5 µM [falling, partial curve, poor fit]

SMILES | AC50 [1] | AC50 [2]
Cc1ccc(S(=O)(=O)NCC(=O)N2CCN(c3ccccc3F)CC2)cc1 | – | 15.8 µM [rising, single point]
COc1ccccc1N1CCN(C(=O)CCCn2nc(C)c([N+](=O)[O-])c2C)CC1 | 35.5 µM [falling, partial curve, poor fit] | –
O=C(c1ccc(-c2ccccc2)cc1)N1CCN(C(=O)c2ccco2)CC1 | 8.91 µM [rising, partial curve] | 8.91 µM [rising, partial curve]
COc1cccc(C2=NN(C(=O)c3cccs3)C(O)(C(F)(F)F)C2)c1 (stereo not given) | 35.5 µM [rising, single point] | –
C[C@]12CCC(=O)C=C1CCC1C2C(=O)C[C@]2(C)C1CC[C@]2(O)C(=O)CO (stereo not given in full) | 0.000891 µM [falling, full curve, poor fit] | –
CCc1nnc2c3ccccc3nc(N3CCN(c4cc(Cl)ccc4C)CC3)n12 | 0.00316 µM [falling, full curve, poor fit] | –
CCCc1cc(-n2ccnc2)n2c(nc3ccccc32)c1C#N | – | 35.5 µM [rising, single point]
Cc1nn(-c2ccccc2)c(C)c1/C=N/NC(=O)CSc1nnc(SCc2cccc3ccccc23)s1 | 10 µM [rising, partial curve, poor fit] | 12.6 µM [rising, partial curve]
Cc1ccc(Cn2c(CO)cnc2SCC(=O)Nc2cccc(F)c2)cc1 | 0.501 µM [rising, full curve] | –
CCn1c(COc2ccccc2)nnc1SCC(=O)Nc1cc(C)ccc1OC | – | 12.6 µM [rising, single point]
O=S(=O)(Nc1cccc(-c2cn3cccnc3n2)c1)c1ccc(F)cc1 | 0.794 µM [rising, full curve, poor fit] | 0.355 µM [rising, full curve]
O=C(Cn1c(-c2ccccc2)c[n+]2ccsc12)c1ccc(Br)cc1 | – | 10 µM [rising, partial curve, poor fit]
NC(Cc1ccccc1)C(O)(c1ccccc1)c1ccccc1 (stereo not given) | – | 10 µM [falling, partial curve]
COc1cc(NC(=O)c2ccc(Cl)cc2Cl)ccc1-c1cc2ccccc2oc1=O | 17.8 µM [falling, partial curve, poor fit] | 8.91 µM [falling, partial curve]
COc1ccccc1-c1nccc(Nc2ccc(F)cc2)n1 | 6.31 µM [falling, single point] | –
N#C/C(=C\c1ccc(F)cc1F)S(=O)(=O)c1ccccn1 | – | 0.0126 µM [falling, full curve, poor fit]
CC(C)Nc1nnc(SCC(=O)Nc2ccc3c(c2)C(=O)c2ccccc2C3=O)s1 | 31.6 µM [rising, single point] | 35.5 µM [rising, single point]
Cc1ccc(C(C)C)cc1OCCCCN1CCCC1 | 14.1 µM [rising, partial curve] | 1 µM [rising, full curve, poor fit]
COc1cccc(NC(=S)N(CCCN2CCCC2)Cc2ccco2)c1 | 0.501 µM [rising, full curve, poor fit] | 1.12 µM [rising, partial curve]
